The record followed here is PubChem BioAssay AID1487 (National Center for Advancing Translational Sciences (NCATS), 2009).

Values joined by “and” are separate entries in the source; they are usually repeats but may differ in a detail not shown here. Equal values may be shown once. This is one part of the list. These are further read-outs of the screen, such as a control signal, another cell line or another target. No call is given for them. Most of these compounds were active or inconclusive in the main read-out, so they are no random draw. The note in brackets gives the kind of curve behind each potency; many fits are weak.

The nature of this assay: qHTS Assay for Modulators of Lamin A Splicing. To be noted: HeLa LMNA splicing GFP/RFP minigene ratio, 48 h. A digest of the protocol:
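S3 HeLa cells stably expressing lamin A-EGFP splicing minigene plus DsRed2, 600 cells/well, 48 h compound exposure at 37C. Laser-scanning cytometry; analysed as GFP (500-530 nm)/RFP (575-640 nm) total intensity ratio; 0.5% DMSO vehicle.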

Where [1] appears, read: measured here: GFP splicing reporter channel.
Setting [2] is: measured here: RFP viability control channel.

Consider `O=S(=O)(NCCOc1ccc(F)cc1)c1ccc2c(c1)OCCO2`, for which the AC50 under setting [1] is 35.5 µM [rising, single point].
Turning to `CCOC(=O)c1ccc(OC(=O)c2cn(-c3ccc(C)cc3)c(=O)c3ccccc23)cc1`, the AC50 is, setting by setting: under setting [1], 14.1 µM [falling, partial curve]; under setting [2], 3.16 µM [falling, partial curve].
Regarding `COc1cccc(-c2nccc(NCc3ccc(OC)cc3OC)n2)c1`, the AC50 runs as follows: under setting [1], 12.6 µM [falling, partial curve]; under setting [2], 15.8 µM [falling, partial curve, poor fit].
With `O=C(c1c(F)cccc1F)N1CCCC1`, the half-maximal activity concentration (AC50) under setting [2] was 20 µM [rising, single point].
Turning to `CCn1nc(C(=O)OCC(=O)c2cc(C)n(Cc3cccs3)c2C)c2ccccc2c1=O`, the concentration at half-maximal activity (AC50) under setting [1] is 22.4 µM [rising, single point] and the concentration at half-maximal activity (AC50) under setting [2] was 22.4 µM [rising, single point].
On to `O=C(Nc1ccccc1-c1nnn(CC(=O)N2CCCc3ccccc32)n1)c1ccco1`, for which the half-maximal activity concentration (AC50) under setting [1] is 6.31 µM [rising, partial curve, poor fit].
Turning to `CCCCCOC(=O)Nc1nc(=O)n(C2O[C@H](C)[C@@H](O)[C@@H]2O)cc1F` (stereo partly drawn), the concentration at half-maximal activity (AC50) was 35.5 µM [falling, single point] under setting [1] and 0.708 µM [rising, full curve, poor fit] under setting [2].
As for `COc1ccc(-n2nc(C(=O)NCC(=O)N3CCN(c4ccccn4)CC3)c3ccccc3c2=O)cc1OC`, the AC50 under setting [2] is 31.6 µM [rising, single point].
Same read-out and setting: the figure for `CCCn1c(SCCN2C(=O)c3ccccc3C2=O)n[nH]c1=O` is 0.0126 µM [falling, full curve, poor fit].
Consider `CSc1nc(N)nc(SCC(=O)C23CC4CC(CC(C4)C2)C3)c1C#N`, for which the concentration at half-maximal activity (AC50) under setting [1] was 11.2 µM [rising, partial curve, poor fit] and the concentration at half-maximal activity (AC50) under setting [2] is 8.91 µM [rising, partial curve].
Turning to `CCC(NC(C)C)C(O)c1ccc(O)c(O)c1` (stereo not drawn), the half-maximal activity concentration (AC50) is 11.2 µM [falling, partial curve] and 14.1 µM [rising, single point] under setting [1]; 22.4 µM [falling, single point] under setting [2].
Turning to `Cn1cc(S(=O)(=O)N2CCCCCC2)cc1C(=O)N1CCN(c2ccccc2F)CC1`, under setting [2], the half-maximal activity concentration (AC50) was 0.0501 µM [rising, full curve, poor fit].
On to `CSc1ccccc1NC(=O)CN(Cc1ccc(Cl)cc1)S(C)(=O)=O`, for which the AC50 is, setting by setting: under setting [1], 14.1 µM [rising, single point]; under setting [2], 35.5 µM [rising, single point].
Regarding `N#C/C(=C\c1cccs1)Sc1nc2ccccc2s1`, the concentration at half-maximal activity (AC50) under setting [2] is 25.1 µM [rising, partial curve].
Same read-out and setting: the figure for `CCc1ccc(/C=N/NC(=S)NCCc2ccccc2)cc1` is 0.708 µM [falling, full curve, poor fit]; for `Cc1ccccc1Oc1nc2ccccn2c(=O)c1/C=C(\C#N)C(=O)Nc1c(C)n(C)n(-c2ccccc2)c1=O` it is 0.447 µM [rising, full curve].
For `COc1ccc(-c2noc(C3CCCN(S(=O)(=O)c4cccc(Cl)c4C)C3)n2)cc1OC` (stereo not drawn), the AC50 by setting is: under setting [1], 11.2 µM [rising, partial curve, poor fit]; under setting [2], 17.8 µM [rising, partial curve].
On to `COc1cc(NS(=O)(=O)c2ccc3c(c2)CC(C)N3C(=O)C2CCC2)cc(OC)c1OC` (stereo not drawn), for which the AC50 runs as follows: under setting [1], 0.0398 µM [falling, full curve, poor fit]; under setting [2], 0.0562 µM [falling, partial curve].
Take `Cc1ccc(CN2C3CCCC2CC(NC(=O)c2ccc(C)cc2)C3)cc1` (stereo not drawn): the AC50 under setting [1] was 6.31 µM [falling, partial curve, poor fit].
For the molecule `N=C(N)c1ccc(O)cc1`, the AC50 by setting is: under setting [1], 17.8 µM [falling, single point]; under setting [2], 22.4 µM [falling, partial curve, poor fit].
Consider `CCOC(=O)N1CCN(CCC(=O)c2ccc(Cl)cc2)CC1`, for which the AC50 under setting [1] was 35.5 µM [falling, single point].
As to `CCOc1ncccc1C(=O)Nc1nc(C(C)(C)C)cs1`, under setting [1], the AC50 is 2.51 µM [falling, full curve, poor fit].
Consider `COc1ccc(/C=N/OCC(=O)Nc2ccc3c(c2)OCO3)c(OC)c1`, for which, under setting [2], the AC50 is 11.2 µM [rising, partial curve].
On the same count and under the same terms, for `CCS(=O)(=O)N1CCN(c2ccc(Cl)cc2[N+](=O)[O-])CC1` the value was 17.8 µM [rising, partial curve].
With `Cn1cc(C(=O)O)c(=O)c2cc(S(=O)(=O)N3CCOCC3)ccc21`, the concentration at half-maximal activity (AC50) under setting [1] was 0.00282 µM [falling, full curve, poor fit] and the half-maximal activity concentration (AC50) under setting [2] was 0.708 µM [falling, full curve, poor fit].
Regarding `CNC(=O)CC1C(=O)N(c2ccc(Cl)cc2)C(=S)N1CCc1ccc(OC)c(OC)c1` (stereo not drawn), the half-maximal activity concentration (AC50) reads like this: under setting [1], 31.6 µM [falling, single point]; under setting [2], 35.5 µM [falling, single point].
With `CCOC(=O)c1cnc2c(cnn2C)c1Cl`, under setting [1], the AC50 is 5.62 µM [rising, single point].
Regarding `COc1ccc(C2=C(C=C(C#N)C#N)C(c3ccccc3C)c3ccccc3O2)cc1OC` (stereo not drawn), the half-maximal activity concentration (AC50) under setting [1] was 12.6 µM [rising, single point] and the AC50 under setting [2] was 14.1 µM [rising, partial curve].
Regarding `O=C(CNS(=O)(=O)c1ccc(F)cc1)Nc1ccc(C(F)(F)F)cc1`, the AC50 under setting [2] is 35.5 µM [rising, single point].
The same measure, in the same setting: for `Cc1ccc(C)c(NC(=O)c2cnc3sc(N4CCOCC4)nn3c2=O)c1` the value was 0.0141 µM [falling, single point].
The same measure, in the same setting: the figure for `COc1ccc(S(=O)(=O)N(CCC#N)Cc2ccco2)cc1OC` is 35.5 µM [falling, single point].
Turning to `Cc1ccc(S(=O)(=O)N(C(=O)c2ccncc2)c2ccc(OC(=O)c3ccncc3)c3ccccc23)cc1`, the AC50 by setting is: under setting [1], 14.1 µM [rising, single point]; under setting [2], 31.6 µM [rising, single point].
As for `COc1ccccc1-c1c(C(F)(F)F)oc2cc(OC(=O)c3ccc([N+](=O)[O-])cc3)ccc2c1=O`, the half-maximal activity concentration (AC50) was 5.62 µM [rising, single point] under setting [1] and 35.5 µM [falling, single point] under setting [2].
